Several values for one entry are separate records, joined by “and”; a condition that tells them apart may be missing. Identical values can stand only once. At least one peptide structure holds a part that was inferred or is arguable (an end, a ring closure or a residue). Ends that are not written are not given here.
Experiments:
[1] = Membrane damage in a lipid-vesicle leakage model (ANTS/DPX); conditions: for leakage after applying a potential of 100 mV: either polarity (valinomycin / K+ gradients), with or without Zn2+ ions
[2] = Translocation into lipid vesicles (encapsulated chymotrypsin, Gly-Gln-Phe-Coumarin tag, method of Marks et al.); conditions: for extent of translocation: after 10 min, Figure 4B; for penetrated into the vesicles: after 300 seconds, 2 µM peptide, 100 µM lipid
Source text: Wimley, Spontaneous Membrane-Translocating Peptides by Orthogonal High-Throughput Screening, J Am Chem Soc, 133 (2011) 8995-9004].
In this method, the sequence Gly-Gln-Phe-Coumarin is C-terminally coupled to the peptides. Chymotrypsin is encapsulated in the vesicles, and this enzyme cuts the peptide between phenylalanine and coumarin. If accordingly labeled peptides penetrate into the vesicles, Chymotrypsin acts and cleaves the Phe-Coumarin bond which sets the coumarin free and causes a bathochromic shift of the fluorescence maximum of about 50 nm. which can be determined fluorimetrically.
Large unilamellar vesicles consisting of POPC / POPG 25:75 (mol:mol) were used in a concentration of 100 µM in buffer without or with 100 µM ZnSO4. […]

E. coli DSM 1103 = experiment: Antimicrobial activity, resazurin growth inhibition in microtiter plates; type: cell-based; conditions: 20-22 h at 37 °C, resazurin readout
K. rhizophila DSM 348 = experiment: as above; type: cell-based; conditions: 20-22 h at 37 °C, resazurin readout
S. xylosus DSM 20266 = experiment: as above; type: cell-based; conditions: 20-22 h at 37 °C, resazurin readout
P. aeruginosa DSM 1117 = experiment: as above; type: cell-based; conditions: 20-22 h at 37 °C, resazurin readout
S. aureus DSM 1104 = experiment: as above; type: cell-based; conditions: 20-22 h at 37 °C, resazurin readout
S. epidermidis DSM 1198 = experiment: as above; type: cell-based; conditions: 20-22 h at 37 °C, resazurin readout
C. albicans = experiment: as above; type: cell-based; conditions: 20-22 h at 37 °C, resazurin readout
HeLa tumor cells = experiment: Translocation into HeLa tumor cells, flow cytometry; type: cell-based, human; conditions: 100 µM peptide vs 2 µM R9, after 2 h, without Zn, N-terminal carboxyfluorescein label, median fluorescence
B. subtilis DSM 347 = experiment: Antimicrobial activity, resazurin growth inhibition in microtiter plates; type: cell-based; conditions: 20-22 h at 37 °C, resazurin readout
BY2 tobacco cells = experiment: Translocation into BY2 tobacco cells, fluorescence microscopy; type: cell-based, Nicotiana tabacum L. cv. Bright Yellow 2; conditions: 1 µM peptide N-terminally labeled with rhodamine B, 2 h, 6 h or 20 h, without or with 30 µM ZnSO4
E. faecalis DSM 2570 = experiment: Antimicrobial activity, resazurin growth inhibition in microtiter plates; type: cell-based; conditions: 20-22 h at 37 °C, resazurin readout

Row | Substance | leakage ([1]; peptide concentration of 2 µM, in 10 min) | extent of translocation ([2]; without Zn2+ ions) | concentrations of DDP, which were required to effect a detectable inhibitory effect on the respective bacterial strain (E. coli DSM 1103) | concentrations of DDP, which were required to effect a detectable inhibitory effect on the respective bacterial strain (K. rhizophila DSM 348) | concentrations of DDP, which were required to effect a detectable inhibitory effect on the respective bacterial strain (S. xylosus DSM 20266) | concentrations of DDP, which were required to effect a detectable inhibitory effect on the respective bacterial strain (P. aeruginosa DSM 1117) | concentrations of DDP, which were required to effect a detectable inhibitory effect on the respective bacterial strain (S. aureus DSM 1104) | concentrations of DDP, which were required to effect a detectable inhibitory effect on the respective bacterial strain (S. epidermidis DSM 1198) | leakage after applying a potential of 100 mV [1] | concentrations of DDP, which were required to effect a detectable inhibitory effect on the respective bacterial strain (C. albicans) | efficiency of uptake relative to R9 (HeLa tumor cells) | concentrations of DDP, which were required to effect a detectable inhibitory effect on the respective bacterial strain (B. subtilis DSM 347) | penetration into the cells (BY2 tobacco cells) | concentrations of DDP, which were required to effect a detectable inhibitory effect on the respective bacterial strain (E. faecalis DSM 2570) | penetrated into the vesicles ([2]; with Zn2+ ions (100 µM ZnSO4)) | penetrated into the vesicles ([2]; without Zn2+ ions)
1 | GMASKAGAIAGKIAKVALKAL-NH2 [PGLa, reference compound] | 90% | – | – | – | – | – | – | – | – | – | – | – | – | – | – | –
2 | SSLLAKGLA [SSL-9 E5A D9A] | – | able to translocate into vesicles | – | – | – | – | – | – | – | – | – | – | – | – | – | –
3 | SSLLEKGLDGAKKAV [SSL-15, SSLLEKGLDG AKKAV] | – | able to penetrate lipid membranes very efficiently | – | – | – | – | – | – | – | – | – | – | – | – | – | –
4 | SSLLEKGLDGAKKAVGGLGKLGKDA [SSL-25, SSLLEKGLDG AKKAVGGLGK LGKDA] | – | – | >128 µM | >256 µM | >256 µM | >128 µM | >256 µM | >128 µM | no significant change in the leakage | >256 µM | 13% | >128 µM | able to penetrate into the cells | >256 µM | – | –
5 | SSLLEKGLDGAKKAVGGLGKLGKDAVEDLESVGKGAVHDVKDVLDSVL [DCD-1L, SSLLEKGLDGAKKAVGGLGKLGKDAVEDLESVGKGAVHDVKDVLDSVL] | – | – | >128 µM | >256 µM | >256 µM | >128 µM | >256 µM | >128 µM | no significant change in the leakage | >256 µM | 23% and 22% | >128 µM | able to penetrate into the cells | >256 µM | ~80% | approximately 70%
